{
  "source": "patent US20090232909A1",
  "about": "“Method for determining physiological effects of hemoglobin” (priority 1999, published 2009)",
  "system": "oxygenated RBCs",
  "assay": "Intraerythrocytic S-nitrosoHb, iron nitrosylHb and metHb after exposure of oxygenated RBCs to NO",
  "assay_type": "cell-based",
  "settings": "0.3 μM NO, aerated RBCs, n=12",
  "data": [
    {"smiles": "[N]=O", "note": "[NO, nitric oxide]", "values": [
      {"measurement": "yield of intracellular S-nitrosoHb", "result": "103 ± 38", "unit": "nM"},
      {"measurement": "yield of intracellular iron-nitrosylHb", "result": "42 ± 15", "unit": "nM"},
      {"measurement": "yield of intracellular metHb", "result": 0, "unit": "nM"}
    ]}
  ]
}
